Measurements taken from PMC5972182, “Comparison of a Rat Primary Cell-Based Blood-Brain Barrier Model With Epithelial and Brain Endothelial Cell Lines: Gene Expression and Drug Transport” (Frontiers in Molecular Neuroscience, 2018).

What was measured:
[1] = tested on: primary rat brain endothelial cell-based BBB model (EPA)
[2] = in vitro; conditions: human, Caco-2
[3] = in vitro; conditions: Wistar, rat

COc1cc2c(cc1OC)C(=O)C(CC1CCN(Cc3ccccc3)CC1)C2 (stereo not drawn) [donepezil]
Penetration in the presence of choline and carnitine [1]: inhibited significantly | efflux ratio [2]: 1.78 | Papp [3]: 63 ± 13 ×10⁻⁶ cm/s
